# Reference: paper PMC10543288
# Protein sequences, listed by entry. Tags and fused reporters are not part of them.
# UniProt Q8VI67: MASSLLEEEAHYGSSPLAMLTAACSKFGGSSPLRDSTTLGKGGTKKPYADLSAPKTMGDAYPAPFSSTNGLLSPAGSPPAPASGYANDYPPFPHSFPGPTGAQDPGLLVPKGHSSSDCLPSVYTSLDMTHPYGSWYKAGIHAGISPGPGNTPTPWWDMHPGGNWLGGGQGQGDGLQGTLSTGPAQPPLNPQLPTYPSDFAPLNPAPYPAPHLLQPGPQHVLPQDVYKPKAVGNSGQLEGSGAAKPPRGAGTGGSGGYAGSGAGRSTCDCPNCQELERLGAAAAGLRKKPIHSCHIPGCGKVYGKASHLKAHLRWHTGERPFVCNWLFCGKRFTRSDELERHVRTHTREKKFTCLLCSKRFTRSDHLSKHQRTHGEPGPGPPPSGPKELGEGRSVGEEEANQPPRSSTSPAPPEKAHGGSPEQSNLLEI
# UniProt Q64205: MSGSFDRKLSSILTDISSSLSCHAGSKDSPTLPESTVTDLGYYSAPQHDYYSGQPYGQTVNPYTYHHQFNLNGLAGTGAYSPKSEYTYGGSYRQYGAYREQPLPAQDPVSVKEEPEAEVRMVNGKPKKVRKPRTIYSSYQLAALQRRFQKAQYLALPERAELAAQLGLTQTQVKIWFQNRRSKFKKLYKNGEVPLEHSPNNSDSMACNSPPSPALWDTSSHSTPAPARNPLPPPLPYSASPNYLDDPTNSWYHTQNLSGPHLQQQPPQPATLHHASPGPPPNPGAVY
# Results are given in words; binding and its absence hold for the method and conditions named. Binding seen in cells or lysates may run through a third protein. Some binding calls cover weakened binding; strength is not graded here.
# Molecular target: Flag-tagged full-length Sp7 (mouse) (UniProt Q8VI67)
# Assay: co-IP; whole cell extracts of iMDP3 and HEK293T cells transfected for 48 h with Flag- and Myc-tagged constructs; precipitated with anti-Flag or anti-Myc antibody and protein G agarose beads, IgG as negative control; Western blotting
substance,measurement,value
Myc-tagged full-length Dlx3 (from UniProt Q64205 1-287),binding,binds
